Experimental data: the supplement of paper PMC4604168 (melanoma cell lines)
The list shows a part of the results. Single values are uncertain, as repeats are few or missing.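 Cells were imaged in 1,536-well plates, and nuclei stained with an antibody against cleaved PARP were counted against all DNA-stained nuclei to give the apoptosis fraction. Screening doses were chosen to leave most cells alive, and resting and induced cleaved-PARP levels differ strongly between cell lines.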

How the values were obtained:
Test in all cases: cleaved PARP positive nuclei fraction relative to DMSO control; melanoma cells; higher = more apoptosis
Conditions in all cases: library dose: low library concentration; 72 h
WM115 = system: WM115
WM1716 = system: WM1716
WM1745 = system: WM1745
WM3526 = system: WM3526
WM3619 = system: WM3619
WM451Lu = system: WM451Lu

Row | SMILES | cleaved PARP positive nuclei fraction (WM115) | cleaved PARP positive nuclei fraction (WM1716) | cleaved PARP positive nuclei fraction (WM1745) | cleaved PARP positive nuclei fraction (WM3526) | cleaved PARP positive nuclei fraction (WM3619) | cleaved PARP positive nuclei fraction (WM451Lu)
1 | C[As](C)SC[C@H](NC(=O)CC[C@H](N)C(=O)O)C(=O)NCC(=O)O [Darinaparsin] + Cn1c(Nc2ccc(C(F)(F)F)cc2)nc2cc(Oc3ccnc(-c4ncc(C(F)(F)F)[nH]4)c3)ccc21 [CHIR265] (first compound 0.4 µM, partner dose 0.08 µM) | 507% | 78% | 128% | 378% | 132% | 91.5%
2 | CNC(=O)c1cc(Oc2ccc(NC(=O)Nc3ccc(Cl)c(C(F)(F)F)c3)cc2)ccn1 [sorafenib] + O=C(Oc1ccc([N+](=O)[O-])cc1)N1CCC(C(O)(c2ccc3c(c2)OCO3)c2ccc3c(c2)OCO3)CC1 [JZL184] (first compound 0.4 µM, partner dose 1 µM) | 107% | 45.1% | 89.5% | 41.5% | 75.3% | 56.2%
3 | Clc1ccc(Nc2nnc(Cc3ccncc3)c3ccccc23)cc1 [vatalanib] + C[As](C)SC[C@H](NC(=O)CC[C@H](N)C(=O)O)C(=O)NCC(=O)O [Darinaparsin] (first compound 2 µM, partner dose 0.4 µM) | 130% | 142% | 105% | 98% | 129% | 107%
4 | Cn1cc(C2=C(c3cn(C4CCN(Cc5ccccn5)CC4)c4ccccc34)C(=O)NC2=O)c2ccccc21 [Enzastaurin] + C[C@]1(c2nc3c(C(N)=O)cccc3[nH]2)CCCN1 [Veliparib] (first compound 0.8 µM, partner dose 1.4 µM) | 124% | 83.5% | 109% | 73.9% | 92.5% | 861%
5 | Cn1cc(C2=C(c3cn(C4CCN(Cc5ccccn5)CC4)c4ccccc34)C(=O)NC2=O)c2ccccc21 [Enzastaurin] + CCCCCCCCCCCC1=C(O)C(=O)C=C(O)C1=O [Embelin] (first compound 0.8 µM, partner dose 1.2 µM) | 121% | 187% | 90.8% | 147% | 94.9% | 53.8%
6 | C[As](C)SC[C@H](NC(=O)CC[C@H](N)C(=O)O)C(=O)NCC(=O)O [Darinaparsin] + CN(NC(=O)CC(=O)NN(C)C(=S)c1ccccc1)C(=S)c1ccccc1 [STA4783] (first compound 0.4 µM, partner dose 0.006 µM) | 118% | 98.4% | 262% | 57.2% | 137% | 196%
7 | N.N.[Cl][Pt][Cl] [cisplatin] + CC1(C)NC(=O)N(c2ccc([N+](=O)[O-])c(C(F)(F)F)c2)C1=O [nilutamide] (first compound 1.6 µM, partner dose 1 µM) | 90% | 69.4% | 71.4% | 123% | 81.3% | 59.9%
8 | C[C@]12O[C@H](C[C@]1(O)CO)n1c3ccccc3c3c4c(c5c6ccccc6n2c5c31)CNC4=O [Lestaurtinib] + CC(=O)c1c(C)c2cnc(Nc3ccc(N4CCNCC4)cn3)nc2n(C2CCCC2)c1=O [palbociclib] (first compound 0.004 µM, partner dose 0.04 µM) | 200% | 119% | 104% | 97.3% | 112% | 67%
9 | CO[C@H]1C[C@@H]2CC[C@@H](C)[C@@](O)(O2)C(=O)C(=O)N2CCCC[C@H]2C(=O)O[C@H]([C@H](C)C[C@@H]2CC[C@@H](OCCO)[C@H](OC)C2)CC(=O)[C@H](C)/C=C(\C)[C@@H](O)[C@@H](OC)C(=O)[C@H](C)C[C@H](C)/C=C/C=C/C=C/1C [everolimus] + Cc1cc(SCc2sc(-c3ccc(C(F)(F)F)c(F)c3)nc2C)ccc1OCC(=O)O [GW0742] (first compound 0.02 µM, partner dose 2 µM) | 114% | 179% | 94.4% | 70.9% | 82.2% | 163%
10 | CN(c1ncccc1CNc1nc(Nc2ccc3c(c2)CC(=O)N3)ncc1C(F)(F)F)S(C)(=O)=O + Cc1cc(SCc2sc(-c3ccc(C(F)(F)F)c(F)c3)nc2C)ccc1OCC(=O)O [GW0742] (first compound 0.08 µM, partner dose 2 µM) | 189% | 85.1% | 100% | 34.2% | 94.3% | 221%
11 | O=C(O)[C@@H]1[O][Sb](=[O])([O][Sb]2(=[O])[O][C@H]([C@H](O)CO)[C@H](O)[C@H](C(=O)O)[O]2)[O][C@H]([C@H](O)CO)[C@@H]1O (stereo partly specified) [stibogluconate] + C[As](C)SC[C@H](NC(=O)CC[C@H](N)C(=O)O)C(=O)NCC(=O)O [Darinaparsin] (first compound 2 µM, partner dose 0.4 µM) | 84.8% | 207% | 85.7% | 80.4% | 96.6% | 76.8%
12 | C[C@]12O[C@H](C[C@]1(O)CO)n1c3ccccc3c3c4c(c5c6ccccc6n2c5c31)CNC4=O [Lestaurtinib] + COc1cc(N2CCC(N3CCN(C)CC3)CC2)ccc1Nc1ncc(Cl)c(Nc2ccccc2S(=O)(=O)C(C)C)n1 [NVP-TAE684] (first compound 0.004 µM, partner dose 0.08 µM) | 251% | 225% | 103% | 99.4% | 123% | 55.3%
13 | Cn1cc(C2=C(c3cn(C4CCN(Cc5ccccn5)CC4)c4ccccc34)C(=O)NC2=O)c2ccccc21 [Enzastaurin] + Cn1nnc2c(C(N)=O)ncn2c1=O [temozolomide] (first compound 0.8 µM, partner dose 2 µM) | 66.9% | 38.7% | 115% | 22.7% | 85.8% | 41.1%
14 | C[As](C)SC[C@H](NC(=O)CC[C@H](N)C(=O)O)C(=O)NCC(=O)O [Darinaparsin] + Cc1nc(Nc2ncc(C(=O)Nc3c(C)cccc3Cl)s2)cc(N2CCN(CCO)CC2)n1 [dasatanib] (first compound 0.4 µM, partner dose 0.004 µM) | 95.3% | 50.8% | 137% | 165% | 93.6% | 110%
15 | N.N.[Cl][Pt][Cl] [cisplatin] + CS(=O)(=O)CCNCc1ccc(-c2ccc3ncnc(Nc4ccc(OCc5cccc(F)c5)c(Cl)c4)c3c2)o1 [lapatinib] (first compound 1.6 µM, partner dose 0.8 µM) | 157% | 153% | 95.6% | 43.3% | 94.7% | 56.7%
16 | CC(=O)c1c(C)c2cnc(Nc3ccc(N4CCNCC4)cn3)nc2n(C2CCCC2)c1=O [palbociclib] + Cc1cc(SCc2sc(-c3ccc(C(F)(F)F)c(F)c3)nc2C)ccc1OCC(=O)O [GW0742] (first compound 0.04 µM, partner dose 2 µM) | 84.5% | 62.4% | 126% | 50.7% | 125% | 66.5%
17 | CN(C)S(=O)(=O)c1ccc2c(c1)/C(=C/c1cc3c([nH]1)CCCC3)C(=O)N2 + Cc1cc(SCc2sc(-c3ccc(C(F)(F)F)c(F)c3)nc2C)ccc1OCC(=O)O [GW0742] (first compound 0.4 µM, partner dose 2 µM) | 164% | 90.7% | 141% | 70.1% | 85.3% | 321%
18 | CC(=O)c1c(C)c2cnc(Nc3ccc(N4CCNCC4)cn3)nc2n(C2CCCC2)c1=O [palbociclib] + O=C(Oc1ccc([N+](=O)[O-])cc1)N1CCC(C(O)(c2ccc3c(c2)OCO3)c2ccc3c(c2)OCO3)CC1 [JZL184] (first compound 0.04 µM, partner dose 1 µM) | 114% | 300% | 119% | 117% | 116% | 44.5%
19 | CO[C@@H]1[C@H](N(C)C(=O)c2ccccc2)C[C@H]2O[C@]1(C)n1c3ccccc3c3c4c(c5c6ccccc6n2c5c31)C(=O)NC4 [Midostaurin] + C/C(O)=C(\C#N)C(=O)Nc1cc(Br)ccc1Br [LFM-A13] (first compound 0.08 µM, partner dose 2 µM) | 258% | 118% | 108% | 36.1% | 90.8% | 30.4%
20 | N.N.[Cl][Pt][Cl] [cisplatin] + C=CCNC1=C2C[C@@H](C)C[C@H](OC)[C@H](O)[C@@H](C)/C=C(\C)[C@H](OC(N)=O)[C@@H](OC)/C=C\C=C(/C)C(=O)NC(=CC1=O)C2=O [Tanespimycin] (first compound 1.6 µM, partner dose 0.002 µM) | 137% | 35% | 98.4% | 39.2% | 136% | 22.7%
21 | C=CCn1c(=O)c2cnc(Nc3ccc(N4CCN(C)CC4)cc3)nc2n1-c1cccc(C(C)(C)O)n1 + O=C(Oc1ccc([N+](=O)[O-])cc1)N1CCC(C(O)(c2ccc3c(c2)OCO3)c2ccc3c(c2)OCO3)CC1 [JZL184] (first compound 0.02 µM, partner dose 1 µM) | 106% | 284% | 124% | 56.1% | 202% | 55%

Reformatted in markdown: part of the list above

| Row | SMILES | cleaved PARP positive nuclei fraction (WM115) | cleaved PARP positive nuclei fraction (WM1716) | cleaved PARP positive nuclei fraction (WM1745) | cleaved PARP positive nuclei fraction (WM3526) | cleaved PARP positive nuclei fraction (WM3619) | cleaved PARP positive nuclei fraction (WM451Lu) |
| --- | --- | --- | --- | --- | --- | --- | --- |
| 18 | CC(=O)c1c(C)c2cnc(Nc3ccc(N4CCNCC4)cn3)nc2n(C2CCCC2)c1=O [palbociclib] + O=C(Oc1ccc([N+](=O)[O-])cc1)N1CCC(C(O)(c2ccc3c(c2)OCO3)c2ccc3c(c2)OCO3)CC1 [JZL184] (first compound 0.04 µM, partner dose 1 µM) | 114% | 300% | 119% | 117% | 116% | 44.5% |
| 19 | CO[C@@H]1[C@H](N(C)C(=O)c2ccccc2)C[C@H]2O[C@]1(C)n1c3ccccc3c3c4c(c5c6ccccc6n2c5c31)C(=O)NC4 [Midostaurin] + C/C(O)=C(\C#N)C(=O)Nc1cc(Br)ccc1Br [LFM-A13] (first compound 0.08 µM, partner dose 2 µM) | 258% | 118% | 108% | 36.1% | 90.8% | 30.4% |
